In article PMC5394236:
No constants are given. Whether binding was seen depends on the method and setting. Some results given as binding are weak or reduced against the parent protein; the word gives no strength.

By UniProt entry, the sequences of proteins in these tests, tags left out. Residues count along the entry.
UniProt Q07954, residues 4445-4544: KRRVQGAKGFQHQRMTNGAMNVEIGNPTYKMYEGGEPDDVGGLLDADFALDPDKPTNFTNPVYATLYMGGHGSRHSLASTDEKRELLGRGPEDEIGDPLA
UniProt P37231: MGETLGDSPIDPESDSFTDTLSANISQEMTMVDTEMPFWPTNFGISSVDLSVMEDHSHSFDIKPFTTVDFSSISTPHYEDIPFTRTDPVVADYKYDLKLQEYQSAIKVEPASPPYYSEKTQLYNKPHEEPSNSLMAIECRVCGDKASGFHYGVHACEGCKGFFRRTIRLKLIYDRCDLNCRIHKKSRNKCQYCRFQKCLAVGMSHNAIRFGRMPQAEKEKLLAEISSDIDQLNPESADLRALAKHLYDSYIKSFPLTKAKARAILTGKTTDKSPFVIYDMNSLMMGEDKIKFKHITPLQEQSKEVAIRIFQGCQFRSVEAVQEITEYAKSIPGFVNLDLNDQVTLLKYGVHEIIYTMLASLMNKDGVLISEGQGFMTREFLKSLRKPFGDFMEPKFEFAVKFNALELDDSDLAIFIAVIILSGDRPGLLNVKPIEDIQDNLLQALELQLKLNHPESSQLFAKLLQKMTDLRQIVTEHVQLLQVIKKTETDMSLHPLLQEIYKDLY

Target: GST-tagged Lrp1 ICD (a.a. 4445–4544 of human LRP1) (human) (UniProt Q07954)
Test: pull-down; GST pull-down with GST-Lrp1-ICD and recombinant Pparγ protein; both purified

binding: binds
Substance: recombinant Pparγ protein (from UniProt P37231 1-505)
